According to the supplement of paper PMC9744312:
Counter-ions that a name gives are not always drawn. The list shows a part of the results. The data scatter; read single values as rough.

Tested on: Peyronie's disease tunica albuginea primary fibroblasts
Assay: inhibition of TGF-beta1-induced alpha-SMA expression (myofibroblast transformation), relative to TGF-beta1-only and untreated controls; higher = stronger inhibition of myofibroblast transformation
Settings: 10 µM; TGF-beta1 10 ng/mL; 72 h

Compound | inhibition of TGF-beta1-induced alpha-SMA expression [%]
CC(C)(C)Cn1c(N)nc2ccc(-c3[nH]c(C(C)(C)C)nc3-c3ccc(F)cc3)nc21 | -4.55
COc1cccc(-c2ccc(NC(=O)C3=C(C(=O)O)CCC3)c(F)c2)c1 [Vidofludimus] | 26.9
c1ccc(C2CN3CCSC3=N2)cc1 (centres undefined) [Tetramisole HCl] | -3.78
C=C1c2cccc(O)c2C(=O)C2=C(O)[C@]3(O)C(=O)C(C(N)=O)=C(O)[C@@H](N(C)C)[C@@H]3[C@@H](O)[C@H]12 [Methacycline HCl] | -10.4
Cn1c(=O)cc(N2CCC[C@@H](N)C2)n(Cc2cc(F)ccc2C#N)c1=O [Trelagliptin succinate] | 60.3
Cn1c(=O)cc(N2CCC[C@@H](N)C2)n(Cc2cc(F)ccc2C#N)c1=O [Trelagliptin] | 58.5
C[N+](C)(C)CCO.O=C([O-])C(O)C(O)C(=O)O (centres undefined) [Choline bitartrate] | -5.18
CO[C@H]1/C=C/O[C@@]2(C)Oc3c(C)c(O)c4c(c3C2=O)C2=NC3(CCN(CC(C)C)CC3)NC2=C(NC(=O)/C(C)=C\C=C\[C@H](C)[C@H](O)[C@@H](C)[C@@H](O)[C@@H](C)[C@H](OC(C)=O)[C@@H]1C)C4=O [Rifabutin] | 7.93
c1cnc2cc3c(cc2n1)[C@@H]1CNC[C@H]3C1 [Varenicline Tartrate] | 14.9
CC(=O)OCC(COC(C)=O)OC(C)=O [Triacetin] | -12.4
O=C(CCCCCCNC(=O)c1cnc(N(c2ccccc2)c2ccccc2)nc1)NO [Ricolinostat (ACY-1215)] | 95.8
NC(CO)(CO)CO [Trometamol] | -11.2
Clc1ccc(C(Cn2ccnc2)OCc2c(Cl)cccc2Cl)c(Cl)c1 (centres undefined) [Isoconazole nitrate] | 3.03
NCCC[C@H](N)C(=O)O [L-Ornithine] | 6.82
NC(=O)N1c2ccccc2C=Cc2ccccc21 [Carbamazepine] | -5.34
Nc1nc(F)nc2c1ncn2[C@@H]1O[C@H](CO)[C@@H](O)[C@@H]1O [Fludarabine] | 3.22
CC[C@H]1OC(=O)[C@H](C)[C@@H](O[C@H]2C[C@@](C)(OC)[C@@H](O)[C@H](C)O2)[C@H](C)[C@@H](O[C@@H]2O[C@H](C)C[C@H](N(C)C)[C@H]2O)[C@](C)(O)C[C@@H](C)/C(=N\OCOCCOC)[C@H](C)[C@@H](O)[C@]1(C)O [Roxithromycin] | 41.7
CC(C)[C@H]1C(=O)N[C@@H](CCCN=C(N)N)C(=O)NCC(=O)N[C@@H](CC(=O)O)C(=O)N[C@H](Cc2ccccc2)C(=O)N1C | > 100
Nc1nc(=O)c2nc(CNc3ccc(C(=O)N[C@@H](CCC(=O)O)C(=O)O)cc3)cnc2[nH]1 [Folic acid] | -4.62
C=C1CC[C@H](O)C/C1=C/C=C1\CCC[C@]2(C)[C@@H]([C@H](C)CCCC(C)(C)O)CC[C@@H]12 [Calcifediol] | 36.9
COc1cc(S(=O)(=O)O)ccc1O [Sulfogaiacol] | 6.86
CN1CC[C@H](c2c(O)cc(O)c3c(=O)cc(-c4ccccc4Cl)oc23)[C@H](O)C1 [Flavopiridol (Alvocidib)] | > 100
CC(C)C(=O)OCC(=O)[C@@]12O[C@H](C3CCCCC3)O[C@@H]1C[C@H]1[C@@H]3CCC4=CC(=O)C=C[C@]4(C)[C@H]3[C@@H](O)C[C@@]12C [Ciclesonide] | -33.7
Nc1nc(Cl)nc2c1ncn2[C@@H]1O[C@H](CO)[C@@H](O)[C@@H]1F [Clofarabine] | 41.2
O=C1CN2Cc3c(ccc(Cl)c3Cl)N=C2N1 [Anagrelide HCl] | 13.1

Compound | inhibition of TGF-beta1-induced alpha-SMA expression [%]
CC(C)NCC(O)COc1ccc(COCCOC(C)C)cc1 (centres undefined) [Bisoprolol fumarate] | 23.4
CN(C)Cc1c(C(=O)NCCOc2ccc(C(=O)NO)cc2)oc2ccccc12 | 75.4
CN1C2CCCC1CC(NC(=O)c1nn(C)c3ccccc13)C2 (centres undefined) [Granisetron] | 35.9
CN1C2CCCC1CC(NC(=O)c1nn(C)c3ccccc13)C2 (centres undefined) [Granisetron HCl] | -3.34
CC(C)N1CCN(c2ccc(OCC3COC(Cn4cncn4)(c4ccc(Cl)cc4Cl)O3)cc2)CC1 (centres undefined) [Terconazole] | 15.7
CCN(Cc1ccncc1)C(=O)C(CO)c1ccccc1 (centres undefined) [Tropicamide] | 21.5
CCN(CC)CC#CCOC(=O)C(O)(c1ccccc1)C1CCCCC1 (centres undefined) [Oxybutynin] | 26.6
CCN(CC)CC#CCOC(=O)C(O)(c1ccccc1)C1CCCCC1 (centres undefined) [Oxybutynin chloride] | 30.9
Cc1ncc([N+](=O)[O-])n1CCO [Metronidazole] | 7.32
COc1cc(CNC(=O)CCCCC=CC(C)C)ccc1O [Capsaicin(Vanilloid)] | 55.2
C=CC[C@@H]1/C=C(\C)C[C@H](C)C[C@H](OC)[C@H]2O[C@@](O)(C(=O)C(=O)N3CCCC[C@H]3C(=O)O[C@H](/C(C)=C/[C@@H]3CC[C@@H](O)[C@H](OC)C3)[C@H](C)[C@@H](O)CC1=O)[C@H](C)C[C@@H]2OC [Tacrolimus (FK506)] | 12.6
Cc1ccc(C(=O)c2cc(O)c(O)c([N+](=O)[O-])c2)cc1 [Tolcapone] | 21.1
O=C([O-])c1ccccc1O.[Na+] [Sodium salicylate] | 16
COc1ccc2[nH]cc(CCNC(C)=O)c2c1 [Melatonin] | 28.2
COc1cc2nc(N3CCN(C(=O)c4ccco4)CC3)nc(N)c2cc1OC [Prazosin HCl] | 11.2
NCCS(=O)(=O)O [Taurine] | 37
CCCCS(=O)(=O)N[C@@H](Cc1ccc(OCCCCC2CCNCC2)cc1)C(=O)O [Tirofiban Hydrochloride] | -18.3
CCn1cc(C(=O)O)c(=O)c2cnc(N3CCNCC3)nc21 [Pipemidic acid] | -1.04
CC(C)OC(=O)CCC/C=C\C[C@@H]1[C@@H](/C=C/C(F)(F)COc2ccccc2)[C@H](O)C[C@@H]1O [Tafluprost] | 7.48
COc1nc(C)nc(Cl)c1NC1=NCCN1 [Moxonidine] | 4.62
Cc1ccc(NC(=O)c2ccc(CN3CCN(C)CC3)cc2)cc1Nc1nc(-c2cccnc2)cs1 [Masitinib (AB1010)] | -12.1
Cc1ccc(S(=O)(=O)NC(=O)NN2CC3CCCC3C2)cc1 (centres undefined) [Gliclazide] | -5.77
CC1(C)S[C@@H]2[C@H](NC(=O)Cc3ccccc3)C(=O)N2[C@H]1C(=O)O.CCN(CC)CCOC(=O)c1ccc(N)cc1 [Penicillin G Procaine] | -1.17
C#CCN(C)Cc1ccccc1 [Pargyline hydrochloride] | 13.7
COc1ccc2cc(CCC(C)=O)ccc2c1 [Nabumetone] | -2.77

Quoted at random: 5 entries already listed.
Compound | inhibition of TGF-beta1-induced alpha-SMA expression [%]
COc1cccc(-c2ccc(NC(=O)C3=C(C(=O)O)CCC3)c(F)c2)c1 [Vidofludimus] | 26.9
Nc1nc(Cl)nc2c1ncn2[C@@H]1O[C@H](CO)[C@@H](O)[C@@H]1F [Clofarabine] | 41.2
COc1ccc2[nH]cc(CCNC(C)=O)c2c1 [Melatonin] | 28.2
Nc1nc(F)nc2c1ncn2[C@@H]1O[C@H](CO)[C@@H](O)[C@@H]1O [Fludarabine] | 3.22
CC(C)NCC(O)COc1ccc(COCCOC(C)C)cc1 (centres undefined) [Bisoprolol fumarate] | 23.4

(continued)

Compound | inhibition of TGF-beta1-induced alpha-SMA expression [%]
C[C@H]1[C@@H](O)O[C@@H]2O[C@@]3(C)CC[C@H]4[C@H](C)CC[C@@H]1[C@@]24OO3 [Dihydroartemisinin (DHA)] | 53.3
CCn1cc(C(=O)O)c(=O)c2ccc(C)nc21 [Nalidixic acid] | -7.86
O=C(CCCN1CC=C(n2c(=O)[nH]c3ccccc32)CC1)c1ccc(F)cc1 [Droperidol] | 27.8
Oc1c(I)cc(I)c2cccnc12 [Diiodohydroxyquinoline] | > 100
CC1(C)OC(=O)NC1=O [5,5-Dimethyloxazolidine-2,4-dione] | 35.1
Cn1ncc(Cl)c1-c1cc(C(=O)N[C@H](CN)Cc2ccc(F)c(F)c2)oc1Cl | > 100
CCC[C@H](N[C@@H](C)C(=O)N1[C@H](C(=O)O)C[C@@H]2CCCC[C@@H]21)C(=O)OCC [Perindopril Erbumine] | 31.6
CCCC(=O)O[C@]1(C(=O)COC(C)=O)CC[C@H]2[C@@H]3C[C@H](F)C4=CC(=O)C=C[C@]4(C)[C@@]3(F)[C@@H](O)C[C@@]21C [Difluprednate] | 48.7
Nc1ccc(C(=O)NCC(=O)O)cc1 [Sodium 4-aminohippurate Hydrate] | 23.4
COc1ccc(NS(=O)(=O)c2ccc(N)cc2)nn1 [Sulfamethoxypyridazine] | 38.5
Nc1ccc(S(=O)(=O)c2ccc(N)cc2)cc1 [Dapson] | 1.02
CN(C)CCc1c[nH]c2ccc(Cn3cncn3)cc12 [Rizatriptan Benzoate] | 0.863
OCCN1CCN(CCCN2c3ccccc3Sc3ccc(Cl)cc32)CC1 [Perphenazine] | 58.7
N[C@H]1C(O)O[C@H](CO)[C@@H](O)[C@@H]1O (some centres undefined) [Glucosamine sulfate] | 26
N[C@H]1C(O)O[C@H](CO)[C@@H](O)[C@@H]1O (some centres undefined) [Glucosamine hydrochloride] | 19.8
N=C(N)NC(=N)N1CCOCC1 [Moroxydine HCl] | 20.4
CC(=O)Oc1cccc2c1C(=O)c1c(OC(C)=O)cc(C(=O)O)cc1C2=O [Diacerein] | -0.395
CN1CCCCC1CCN1c2ccccc2Sc2ccc([S+](C)[O-])cc21 (centres undefined) [Mesoridazine Besylate] | 48.6
CC(C)C[C@H](NC(=O)[C@H](CCc1ccccc1)NC(=O)CN1CCOCC1)C(=O)N[C@@H](Cc1ccccc1)C(=O)N[C@@H](CC(C)C)C(=O)[C@@]1(C)CO1 [Carfilzomib (PR-171)] | > 100
O=C(O[C@H]1CN2CCC1CC2)N1CCc2ccccc2[C@@H]1c1ccccc1 [Solifenacin] | 43.5
O=C(O[C@H]1CN2CCC1CC2)N1CCc2ccccc2[C@@H]1c1ccccc1 [Solifenacin succinate] | 95.7
NC(=O)N/N=C/c1ccc([N+](=O)[O-])o1 [Nitrofural] | 10
CN(C)CCC[C@@]1(c2ccc(F)cc2)OCc2cc(C#N)ccc21 [Escitalopram Oxalate] | 18.5
CCCC(=O)Nc1ncnc2c1ncn2[C@@H]1O[C@@H]2COP(=O)(O)O[C@H]2[C@H]1OC(=O)CCC [Dibutyryl-cAMP (Bucladesine)] | 15.4
